# Patent US6780866B2, “Analgesic composition and method” (priority 2001, dated 2004)
# Tests used:
# [1] = tested on: heat-induced tail-flick (nociceptive pain); test: animal or person; type: in vivo, Kunming mice; details: Mus musculus, im
# Description: 320 screened mice, half male and half female, were randomly divided into 16 groups. They were not given food, only water 12 hours prior to dosing.
# The heat tail flick analgesia meter includes a heat source consisting of a 12 V, 50 watt, 8.75 mm projector lamp. The light beam from the heat source was focused and directed to a point on the tail of a mouse being tested, having a distance of 1-2 mm plus ⅓ of the tail length to the tail end.
# The test drugs were given intramuscularly. […] The tail-flick latencies, which were assessed in response to a noxious heat stimulus, i.e., the response time from applying radiant heat on the dorsal surface of the tail to the occurrence of tail flick, were measured and recorded at 15, 30, 45, 60, 90, 120, 150, 180 min. after dosing. For each measurement, three readings were made consecutively one minute apart, and their average was recorded as the latency. The testing on one animal would be terminated when tail-flick was not observed within 20 seconds, and the latency would be recorded as 20 seconds. The pain inhibition rate was calculated according to the following formula for the purpose of assessing the analgesia potency: […]
# The results were processed with SPSS, a statistical software provided by SPSS, Inc. of Chicago, Ill., USA. Half effective dose (ED50) and half inhibition dose (ID50) were calculated with the probit method.
# [2] = tested on: formalin-induced inflammatory pain; test: animal or person; type: in vivo, Wistar male rats; details: Rattus norvegicus, im, read-out: Inhibition rate (%)
smiles,measurement,setting,value
"CN1CC[C@]23c4c5ccc(O)c4O[C@H]2[C@@H](O)C=C[C@H]3[C@H]1C5.Cl [Morphine, Morphine hydrochloride]",ED50,"[1]; 0.75 h, read-out: ED50 of morphine",0.41 mg/kg
same,inhibition at 0.01 mg/kg,[1]; read-out: Inhibition rate (%),13.7%
same,inhibition at 0.06 mg/kg,[1]; read-out: Inhibition rate (%),32.8%
same,inhibition at 0.33 mg/kg,[1]; read-out: Inhibition rate (%),48.1%
same,inhibition at 0.08 mg/kg,[2],3.4%
same,inhibition at 0.15 mg/kg,[2],7.2%
same,inhibition at 0.3 mg/kg,[2],10.2%
same,inhibition at 0.6 mg/kg,[2],11%
same,inhibition at 2.5 mg/kg,[2],34.9%
